Measurements published in publication PMC9061850.
Results are given in words; binding and its absence hold for the method and conditions named. Some entries that bind do so weakly or less than the wild type.

Biological target: IAPP fibrils (preformed mature amyloid fibrils of human IAPP) (human)
Test: negative-stain electron microscopy; preformed IAPP fibrils (67 µM monomer equivalent) incubated with PhPFD at 100:1 for 30 min, stained with sodium silicotungstate, imaged at 30,000x; both purified

binding: binds
B1: Prefoldin from Pyrococcus horikoshii (PhPFD, α2β4 heterohexamer, 86.4 kDa) (complex, UniProt O58263 1-148; O58268 1-117)
chain 1: MAQNNKELEKLAYEYQVLQAQAQILAQNLELLNLAKAEVQTVRETLENLKKIEEEKPEILVPIGAGSFLKGVIVDKNNAIVSVGSGYAVERSIDEAIGFLEKRLKEYDEAIKKTQGALAELEKRIGEVARKAQEVQQKQSMTSFKVKK
chain 2: MQNIPPQVQAMLGQLDTYQQQLQLVIQQKQKVQADLNEAKKALEEIETLPDDAQIYKTVGTLIVKTTKEKAVQELKEKIETLEVRLNALNRQEQKINEKVKELTQKIQAALRPPTAG
